According to article PMC4383067:
These are yes or no findings as the source states them, for the method shown. Some binding calls cover weakened binding; strength is not graded here.

Sequences of proteins named here, by UniProt entry; tags and fusion partners are left off. Residues count along the entry.
UniProt P22303, 32-614: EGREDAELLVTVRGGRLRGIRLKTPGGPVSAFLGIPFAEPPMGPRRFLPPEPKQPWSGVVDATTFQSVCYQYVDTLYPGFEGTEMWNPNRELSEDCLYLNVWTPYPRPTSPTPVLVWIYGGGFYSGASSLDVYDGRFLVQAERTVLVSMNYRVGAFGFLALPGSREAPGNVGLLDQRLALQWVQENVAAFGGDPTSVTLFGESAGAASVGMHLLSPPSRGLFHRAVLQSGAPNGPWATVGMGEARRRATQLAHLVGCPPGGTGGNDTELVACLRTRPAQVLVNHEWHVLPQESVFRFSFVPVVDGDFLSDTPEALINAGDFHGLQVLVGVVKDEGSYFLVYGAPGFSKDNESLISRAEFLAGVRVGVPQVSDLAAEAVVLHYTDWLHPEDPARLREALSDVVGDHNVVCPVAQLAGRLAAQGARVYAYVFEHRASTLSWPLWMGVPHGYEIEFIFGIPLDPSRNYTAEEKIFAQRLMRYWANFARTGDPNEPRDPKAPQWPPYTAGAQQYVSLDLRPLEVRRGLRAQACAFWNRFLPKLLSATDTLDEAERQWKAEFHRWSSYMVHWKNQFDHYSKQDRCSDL

Target: Full-length human PrP (monomeric, recombinant) (human) (UniProt P04156)
Test: static light scattering kinetics; both purified

Full-length human acetylcholinesterase (dimeric, recombinant) (from UniProt P22303 32-614) (enzyme)
binding: binds
